In publication PMC3824243:
These are yes or no findings as the source states them, for the method shown. In cells and extracts the contact can be indirect. These calls come from enrichment with a bait or labelling near it, and not all partners need be listed. Where a sequence is shown, tags or fusion partners need not be part of it. Each block holds one molecule with its values, some of them ahead of it.

Chains of the proteins cited; added tags and fusions are not shown.
UniProt A0A0H2US80: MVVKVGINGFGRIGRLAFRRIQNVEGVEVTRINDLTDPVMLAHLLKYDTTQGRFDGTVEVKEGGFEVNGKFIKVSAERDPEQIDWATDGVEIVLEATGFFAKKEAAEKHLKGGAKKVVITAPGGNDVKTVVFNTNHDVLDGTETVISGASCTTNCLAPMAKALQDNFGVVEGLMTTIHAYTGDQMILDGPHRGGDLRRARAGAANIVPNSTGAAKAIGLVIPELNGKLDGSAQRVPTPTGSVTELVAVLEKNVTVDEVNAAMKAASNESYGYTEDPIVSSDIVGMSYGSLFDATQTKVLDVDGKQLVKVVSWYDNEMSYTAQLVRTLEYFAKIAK
UniProt B1ICR4: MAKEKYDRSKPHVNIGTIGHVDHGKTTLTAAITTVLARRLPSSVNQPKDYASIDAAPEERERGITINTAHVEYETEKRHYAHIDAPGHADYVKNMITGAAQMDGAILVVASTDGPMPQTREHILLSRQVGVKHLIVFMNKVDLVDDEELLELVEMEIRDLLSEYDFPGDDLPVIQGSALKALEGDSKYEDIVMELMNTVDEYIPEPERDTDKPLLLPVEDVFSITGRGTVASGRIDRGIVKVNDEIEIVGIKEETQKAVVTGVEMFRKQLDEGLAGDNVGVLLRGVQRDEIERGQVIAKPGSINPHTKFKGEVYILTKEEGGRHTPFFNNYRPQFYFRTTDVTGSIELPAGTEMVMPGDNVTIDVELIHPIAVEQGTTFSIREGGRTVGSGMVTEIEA
UniProt Q04LY0: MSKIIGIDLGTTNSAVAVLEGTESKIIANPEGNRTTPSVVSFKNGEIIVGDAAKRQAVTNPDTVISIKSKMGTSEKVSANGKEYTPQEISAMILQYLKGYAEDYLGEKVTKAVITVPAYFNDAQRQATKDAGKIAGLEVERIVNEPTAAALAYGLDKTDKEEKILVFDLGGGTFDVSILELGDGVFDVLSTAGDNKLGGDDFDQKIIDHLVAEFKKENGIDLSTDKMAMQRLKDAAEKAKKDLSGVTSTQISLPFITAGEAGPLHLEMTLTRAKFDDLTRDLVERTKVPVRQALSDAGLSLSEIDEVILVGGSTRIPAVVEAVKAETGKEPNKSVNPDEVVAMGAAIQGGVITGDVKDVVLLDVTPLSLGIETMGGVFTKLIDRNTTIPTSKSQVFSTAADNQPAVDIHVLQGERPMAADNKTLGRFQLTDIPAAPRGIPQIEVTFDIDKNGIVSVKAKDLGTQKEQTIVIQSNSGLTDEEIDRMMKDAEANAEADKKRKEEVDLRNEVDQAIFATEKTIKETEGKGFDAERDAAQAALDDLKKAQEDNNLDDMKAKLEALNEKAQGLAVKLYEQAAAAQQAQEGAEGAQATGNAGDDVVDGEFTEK
UniProt Q04KG2: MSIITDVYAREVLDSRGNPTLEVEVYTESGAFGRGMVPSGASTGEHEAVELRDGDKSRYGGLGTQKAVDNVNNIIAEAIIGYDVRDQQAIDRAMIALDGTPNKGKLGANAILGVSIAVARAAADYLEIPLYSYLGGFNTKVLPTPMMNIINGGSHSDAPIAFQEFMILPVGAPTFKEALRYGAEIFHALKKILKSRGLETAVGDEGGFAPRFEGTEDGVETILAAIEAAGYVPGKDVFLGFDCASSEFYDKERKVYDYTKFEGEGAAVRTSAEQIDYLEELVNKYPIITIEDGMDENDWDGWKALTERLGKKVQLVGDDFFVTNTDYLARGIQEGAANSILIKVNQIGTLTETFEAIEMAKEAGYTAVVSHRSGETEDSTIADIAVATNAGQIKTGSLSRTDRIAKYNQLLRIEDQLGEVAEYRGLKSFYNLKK
UniProt Q04MH7: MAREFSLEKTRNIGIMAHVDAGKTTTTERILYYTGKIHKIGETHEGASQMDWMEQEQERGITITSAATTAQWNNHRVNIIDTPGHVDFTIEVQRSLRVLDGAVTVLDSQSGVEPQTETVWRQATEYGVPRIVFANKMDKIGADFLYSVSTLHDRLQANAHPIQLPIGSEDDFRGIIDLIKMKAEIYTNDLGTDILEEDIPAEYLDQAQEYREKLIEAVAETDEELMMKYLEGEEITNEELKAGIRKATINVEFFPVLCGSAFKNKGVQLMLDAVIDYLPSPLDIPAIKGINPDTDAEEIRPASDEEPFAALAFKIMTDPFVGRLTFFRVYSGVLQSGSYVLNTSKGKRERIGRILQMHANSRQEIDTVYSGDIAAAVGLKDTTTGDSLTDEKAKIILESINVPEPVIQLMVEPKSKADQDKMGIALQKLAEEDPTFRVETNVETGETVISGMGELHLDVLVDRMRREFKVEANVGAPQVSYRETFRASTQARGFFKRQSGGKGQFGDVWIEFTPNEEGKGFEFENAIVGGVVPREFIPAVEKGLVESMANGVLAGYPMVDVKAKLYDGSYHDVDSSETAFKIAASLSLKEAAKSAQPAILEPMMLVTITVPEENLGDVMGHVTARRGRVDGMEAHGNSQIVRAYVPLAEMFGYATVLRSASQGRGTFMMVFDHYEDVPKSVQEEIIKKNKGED

Biological target: T1, DnaJ-GFP fusion protein (Streptococcus pneumoniae D39) (UniProt P95830)
T1 sequence: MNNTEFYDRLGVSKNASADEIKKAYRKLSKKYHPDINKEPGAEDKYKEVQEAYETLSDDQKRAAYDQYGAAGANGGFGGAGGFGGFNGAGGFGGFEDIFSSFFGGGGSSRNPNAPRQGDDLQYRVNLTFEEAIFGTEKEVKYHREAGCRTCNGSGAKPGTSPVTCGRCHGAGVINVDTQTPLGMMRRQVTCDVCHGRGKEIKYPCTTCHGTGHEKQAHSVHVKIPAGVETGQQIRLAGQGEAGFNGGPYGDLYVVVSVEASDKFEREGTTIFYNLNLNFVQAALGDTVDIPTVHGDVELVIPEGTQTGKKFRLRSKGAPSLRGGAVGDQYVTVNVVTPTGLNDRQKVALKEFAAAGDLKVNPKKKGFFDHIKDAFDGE
Assay: affinity purification with mass spectrometry; co-IP of DnaJ-GFP from cleared lysate of D39-dnaJ-gfp with GFP antibody and protein G-agarose beads, 4 °C overnight, five PBS washes; SDS-PAGE bands that differed from wild type D39 identified by MALDI-TOF MS

Molecule: bi-functional acetaldehyde-CoA/alcohol dehydrogenase (enzyme)
binding: binds

Molecule: gap gene product/glyceraldehyde-3-phosphate dehydrogenase, type I (from UniProt A0A0H2US80 1-335) (enzyme)
binding: binds

Molecule: rplF gene product/ribosomal protein L6
binding: binds

Molecule: tuf gene product/translation elongation factor Tu (from UniProt B1ICR4 1-398)
binding: binds

Further lines, results first:

binding: binds
Molecule: chaperone protein DnaK (from UniProt Q04LY0 1-607)

binding: binds
Molecule: eno gene product/phosphopyruvate hydratase (from UniProt Q04KG2 1-434) (enzyme)

binding: binds
Molecule: fusA gene product/translation elongation factor G (from UniProt Q04MH7 1-693)

binding: binds
B1: spxB gene product/pyruvate oxidase (enzyme, UniProt Q54970 1-591)
chain: MTQGKITASAAMLNVLKTWGVDTIYGIPSGTLSSLMDALAEDKDIRFLQVRHEETGALAAVMQAKFGGSIGVAVGSGGPGATHLINGVYDAAMDNTPFLAILGSRPVNELNMDAFQELNQNPMYNGIAVYNKRVAYAEQLPKVIDEACRAAVSKKGPAVVEIPVNFGFQEIDENSYYGSGSYERSFIAPALNEVEIDKAVEILNNAERPVIYAGFGGVKAGEVITELSRKIKAPIITTGKNFEAFEWNYEGLTGSAYRVGWKPANEVVFEADTVLFLGSNFPFAEVYEAFKNTEKFIQVDIDPYKLGKRHALDASILGDAGQAAKAILDKVNPVESTPWWRANVKNNQNWRDYMNKLEGKTEGELQLYQVYNAINKHADQDAIYSIDVGNTTQTSTRHLHMTPKNMWRTSPLFATMGIALPGGIAAKKDNPDRQVWNIMGDGAFNMCYPDVITNVQYDLPVINLVFSNAEYGFIKNKYEDTNKHLFGVDFTNADYAKIAEAQGAVGFTVDRIEDIDAVVAEAVKLNKEGKTVVIDARITQHRPLPVEVLELDPKLHSEEAIKAFKEKYEAEELVPFRLFLEEEGLQSRAIK

binding: binds
B2: rplC gene product/ribosomal protein L3 (protein, UniProt B1I8J8 1-208)
chain: MTKGILGKKVGMTQIFTEAGELIPVTVIEATPNVVLQVKTVETDGYNAIQVGFDDKREVLSNKPAKGHVAKANTAPKRFIREFKNVEGLEVGAEITVETFAAGDVVDVTGTSKGKGFQGVIKRHGQSRGPMAHGSRYHRRPGSMGPVAPNRVFKGKNLAGRMGGDRVTIQNLEVVQVVPEKNVILIKGNVPGAKKSLITIKSAVKAGK
